# Reference: US20230127839A1, “COMPOUNDS AND COMPOSITIONS FOR TREATING CONDITIONS ASSOCIATED WITH STING ACTIVITY” (IFM Due, Inc., priority 2019, published 2023)
# Chains of the proteins cited; added tags and fusions are not shown.
# UniProt Q86WV6, whole entry R71H/G230A/H232R/R293Q: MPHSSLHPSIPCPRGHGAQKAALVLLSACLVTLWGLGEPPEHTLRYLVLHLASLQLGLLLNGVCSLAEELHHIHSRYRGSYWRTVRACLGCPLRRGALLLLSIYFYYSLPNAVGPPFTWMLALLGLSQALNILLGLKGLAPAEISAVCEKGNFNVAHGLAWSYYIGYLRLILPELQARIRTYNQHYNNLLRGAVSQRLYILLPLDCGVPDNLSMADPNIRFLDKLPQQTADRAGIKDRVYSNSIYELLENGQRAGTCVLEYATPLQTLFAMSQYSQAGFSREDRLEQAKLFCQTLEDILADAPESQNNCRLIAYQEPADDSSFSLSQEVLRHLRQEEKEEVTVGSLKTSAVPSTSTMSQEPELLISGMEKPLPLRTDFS
# Target: hSTING (Homo sapiens, UniProt Q86WV6, G230A/H232R/R293Q/R71H)
# Assay: STING reporter assay (luciferase) in THP1-Dual KO-IFNAR2 cells stimulated with 2'3'cGAMP
# Conditions: read-out: hSTING EC50, 2'3'cGAMP 15 μM, 24 h, luciferase reporter activity
# Protocol: STING pathway activation by the compounds described herein is measured using THP1-Dual™ cells (KO-IFNAR2).
# THP1-Dual™ KO-IFNAR2 Cells (obtained from invivogen) are maintained in RPMI, 10% FCS, 5 ml P/S, 2 mM L-glut, 10 mM Hepes, and 1 mM sodium pyruvate.
# Compounds are spotted in empty 384 well tissue culture plates (Greiner 781182) by Echo for a final concentration of 0.0017-100 μM. Cells are plated into the TC plates at 40 μL per well, 2×10E6 cells/mL. For activation with STING ligand, 2′3′cGAMP (MW 718.38, obtained from Invivogen), is prepared in Optimem media.
# The following solutions are prepared for each 1×384 plate: • Solution A: 2 mL Optimem with one of the following stimuli: • 60 uL of 10 mM 2′3′cGAMP->150 μM stock • Solution B: 2 mL Optimem with 60 μL Lipofectamine 2000->Incubate 5 min at RT
# 2 mL of solution A and 2 ml Solution B is mixed and incubated for 20 min at room temperature (RT). […] Luciferase reporter activity is then measured. EC50 values are calculated by using standard methods known in the art.
# Luciferase reporter assay: 10 μL of supernatant from the assay is transferred to white 384-plate with flat bottom and squared wells. […] Luminescence is measured on a Platereader (e.g., Spectramax I3X (Molecular Devices GF3637001)).
# Luciferase reporter activity is then measured. EC50 values are calculated by using standard methods known in the art.
row,EC50 [nM],Structure (SMILES)
1,40 to 200,O=C(Nc1cnc(C2COC3(CCC(F)(F)CC3)OC2)c(Cl)c1)Nc1c[nH]c2ccc(Cl)cc12
2,40 to 200,N#Cc1cc(NC(=O)Nc2c[nH]c3ccc(F)cc23)cnc1C1CCC(F)(F)CC1

# Structures were worked out from names or drawings and are uncertain.
